Laboratory results taken from patent US20070191599A1, “METHODS OF MANUFACTURING CORTISCOSTEROID SOLUTIONS” (VERUS PHARMACEUTICALS, INC., priority 2006, published 2007).
At least one structure is not confirmed: it was looked up by name or label, or the drawing left a doubt.

Columns and labels:
Format in all cases: physicochemical
Dissolution Study-6 = test: Dissolution Study-6
[1] = Dissolution Study-5 (50 kg batch)
Dissolution Study-4 = details: 30 min
[2] = Dissolution Study-3 (50 kg batch, Dinex 700 high sheer mixer); details: 50 min

CCCC1O[C@@H]2C[C@H]3[C@@H]4CCC5=CC(=O)C=C[C@]5(C)[C@H]4[C@@H](O)C[C@]3(C)[C@]2(C(=O)CO)O1 (stereo partly drawn) [BUD, (R,S)-11β,16α,17,21-tetrahydroxypregna-1,4-diene-3,20-dione cyclic 16,17-acetal with butyraldehyde]
BUD, filtered (Dissolution Study-6; 30 min (T0 = last suction process), 0.45 μm filter): 232.6 µg/mL | BUD, filtered (Dissolution Study-6; 30 min, 100% = 240.3 μg/ml theoretical): 96.8% | BUD, filtered ([1]; Time 30, 0.45 μm filter): 471.6 µg/mL | BUD, filtered ([1]; Time 30, 100% = 480.4 μg/ml theoretical): 98.2% | BUD, filtered (Dissolution Study-4; 0.45 μm filter): 234.7 µg/mL | BUD, filtered (Dissolution Study-4; 100% = 240.2 μg/ml theoretical): 97.7% | BUD, filtered (loop) ([2]; 0.45 μm filter): 238.6 µg/mL | BUD, filtered (loop) ([2]; 100% = 237.7 μg/ml theoretical): 100.4%
